# Reference: patent US20020164620A1, “Method for identifying compounds modulating sister chromatid separation” (Boehringer Ingelheim International GmbH, priority 2001, published 2002)
# The chains behind the UniProt entries cited, without tags or fusion partners. Where a name states a change or a piece, a line headed by the entry shows the natural chain unless it says otherwise.
# UniProt Q14674: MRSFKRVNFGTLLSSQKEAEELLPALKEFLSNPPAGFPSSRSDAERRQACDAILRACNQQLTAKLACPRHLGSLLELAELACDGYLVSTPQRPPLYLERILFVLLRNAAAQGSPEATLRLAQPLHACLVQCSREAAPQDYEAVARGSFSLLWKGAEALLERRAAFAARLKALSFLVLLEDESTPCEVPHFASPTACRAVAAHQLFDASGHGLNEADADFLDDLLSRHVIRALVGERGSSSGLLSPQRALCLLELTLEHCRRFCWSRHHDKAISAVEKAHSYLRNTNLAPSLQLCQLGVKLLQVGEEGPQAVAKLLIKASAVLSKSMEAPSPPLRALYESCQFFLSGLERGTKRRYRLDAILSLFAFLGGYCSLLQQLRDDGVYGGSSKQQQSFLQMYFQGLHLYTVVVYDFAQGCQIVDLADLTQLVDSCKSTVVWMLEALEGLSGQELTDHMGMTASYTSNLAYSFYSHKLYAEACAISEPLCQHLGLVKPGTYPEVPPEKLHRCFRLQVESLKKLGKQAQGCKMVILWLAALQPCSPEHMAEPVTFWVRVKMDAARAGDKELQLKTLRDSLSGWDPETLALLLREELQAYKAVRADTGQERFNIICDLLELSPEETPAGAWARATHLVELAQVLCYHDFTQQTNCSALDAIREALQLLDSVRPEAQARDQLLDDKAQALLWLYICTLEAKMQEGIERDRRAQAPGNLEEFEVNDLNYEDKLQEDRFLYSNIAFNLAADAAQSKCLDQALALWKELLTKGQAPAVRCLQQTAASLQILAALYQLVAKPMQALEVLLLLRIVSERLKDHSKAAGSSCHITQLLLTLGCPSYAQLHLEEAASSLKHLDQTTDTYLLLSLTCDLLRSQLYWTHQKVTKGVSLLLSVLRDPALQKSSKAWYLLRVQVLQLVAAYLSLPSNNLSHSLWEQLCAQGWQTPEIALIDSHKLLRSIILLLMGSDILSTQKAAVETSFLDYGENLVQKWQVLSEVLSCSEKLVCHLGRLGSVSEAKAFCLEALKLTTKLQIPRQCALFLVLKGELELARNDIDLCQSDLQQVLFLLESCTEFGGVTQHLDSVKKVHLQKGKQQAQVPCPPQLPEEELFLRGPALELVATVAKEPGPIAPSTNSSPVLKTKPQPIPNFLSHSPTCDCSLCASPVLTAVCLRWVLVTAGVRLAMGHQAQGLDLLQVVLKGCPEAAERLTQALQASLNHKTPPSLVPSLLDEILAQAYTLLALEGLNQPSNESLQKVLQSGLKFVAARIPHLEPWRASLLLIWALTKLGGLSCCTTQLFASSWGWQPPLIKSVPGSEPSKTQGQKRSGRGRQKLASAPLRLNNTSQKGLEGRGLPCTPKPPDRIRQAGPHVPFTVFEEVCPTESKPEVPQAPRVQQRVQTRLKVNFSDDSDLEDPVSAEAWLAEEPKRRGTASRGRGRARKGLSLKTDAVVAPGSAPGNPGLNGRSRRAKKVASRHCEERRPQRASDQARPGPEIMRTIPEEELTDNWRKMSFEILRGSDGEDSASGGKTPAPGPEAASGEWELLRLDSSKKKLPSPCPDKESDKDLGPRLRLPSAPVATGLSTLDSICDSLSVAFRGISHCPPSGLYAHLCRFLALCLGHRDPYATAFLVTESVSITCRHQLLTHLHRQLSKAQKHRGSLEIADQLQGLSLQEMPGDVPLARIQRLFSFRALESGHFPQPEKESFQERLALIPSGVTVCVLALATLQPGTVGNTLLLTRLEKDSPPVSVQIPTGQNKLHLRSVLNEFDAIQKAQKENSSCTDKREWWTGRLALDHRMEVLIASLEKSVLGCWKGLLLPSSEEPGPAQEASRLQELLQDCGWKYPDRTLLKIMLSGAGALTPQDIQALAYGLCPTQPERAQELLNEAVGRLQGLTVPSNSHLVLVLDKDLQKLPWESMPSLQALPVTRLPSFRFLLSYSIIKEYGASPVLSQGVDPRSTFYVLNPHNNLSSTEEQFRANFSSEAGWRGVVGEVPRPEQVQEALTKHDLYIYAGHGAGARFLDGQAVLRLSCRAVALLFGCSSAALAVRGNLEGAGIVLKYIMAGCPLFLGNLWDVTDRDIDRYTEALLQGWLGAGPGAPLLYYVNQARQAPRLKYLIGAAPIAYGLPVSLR
# These are yes or no findings as the source states them, for the method shown. Some entries that bind do so weakly or less than the wild type.
# Biological target: full-length human separase (human) (UniProt Q14674)
# Assay: activation of the separase IP in mitotic Xenopus extract in the presence of the peptide, avidin blot (FIG. 4B, lane 2i)
binder,measurement,value
SVEQGR (N-terminal biotin; C-terminus modified to an acyloxymethyl ketone (amk)) [Bio-SVEQGR-amk],binding,binds
